Reference: US8772227B2, “Glucosamine pro-drug” (priority 2011, dated 2014)
The name of at least one read-out is uncertain.

Experiment: Bioavailability in human (glucosamine in 0-8 h urine)
Type: in vivo
Settings: healthy volunteer, oral, 50 mg glucosamine equivalent

Which “cumulative amount of glucosamine in 0-8 hour urine (relative bioavailability)” value does the source give for `CC(C)C(NC(=O)CN)C(=O)OCC1OC(O)C(N)C(O)C1O` (centres unmarked) [GV-GlcN, (5-amino-3,4,6-trihydroxyoxan-2-yl)methyl 2-(2-aminoacetamido)-3-methylbutanoate] here?
Its value is 3.17 mg.

For `N[C@H]1C(O)O[C@H](CO)[C@@H](O)[C@@H]1O` (some centres unmarked) [GlcN, Glucosamine], which “cumulative amount of glucosamine in 0-8 hour urine (relative bioavailability)” value is on record?
Its value is 1.32 mg.
